Measurements taken from the supplement of paper PMC10338343.
± gives the standard deviation. The list shows a part of the results, in another mix than the full data. Many entries were measured with a wide error.

The sequences below were run on EfPiwi piRISC loaded with piRNA #1 (26 nt) (assay: pre-steady-state target cleavage rate (min^-1); guide: piRNA #1 5'p-UGAGGUAGUAGGUUGUAUAGUAUCCA; MIWI and MILI are mouse PIWI proteins and EfPiwi is from a freshwater sponge; tags in brackets are library labels; higher = faster piRNA-guided slicing of the target). Conditions: auxiliary factor: 500 nM Ephydatia muelleri Gtsf1.
Experimental: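 Cleave-'n-Seq: a library of target RNAs (target site in constant flanks) at […] was incubated with 1 nM active freshwater sponge Ephydatia fluviatilis Piwi piRISC (synthetic 5'-monophosphorylated piRNA guide) with or without 500 nM EmGtsf1 at 33 °C for 1 min to 16 h. Uncleaved targets were sequenced and the pooled three trials fitted to a burst-and-steady-state model to give the pre-steady-state cleavage rate (min^-1). Sequence is the target site only. Fits with R² ≤ 0 are excluded.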

Sequence | pre-steady-state target cleavage rate
GGAGACCUAUCAAUACAACCUACUACGUCA | 0.00128 ± 0.0054
GGAGACCUAUGAUAUCAACGUACUACCUGA | 0.000307 ± 0.0095
GGAGACCUAACUAAACAACGUACUACCUCA | 0.00112 ± 0.007
GGAGACCUAUGAUAUGUUGGUAUCUACCUCA | 0.000108 ± 0.032
GGAGACGAUACUCAUACAACCUACUACCUCA | 0.0151 ± 0.0063
GGAGACCUUAUUAUACAACCUACUACCUCA | 0.00416 ± 0.0043
GGAGACCUUUCUAUACAACCUACUAGCUCA | 0.00299 ± 0.003
GGAGACCAUACUAUACAACCUACUACCUUCA | 0.0679 ± 0.02
GGAGACGAUAGUAUACAACCUACUUCCUCA | 0.00235 ± 0.0025
GGAGACCUAUCUAUACAACCUACUAACUCA | 0.00341 ± 0.0046
GGAGACGUAUACUAUACAACCUACUACCUCA | 0.0356 ± 0.013
GGAGACCUAUGAUAUGUUGCUACUACCGCA | 0.000258 ± 0.01
GGAGACCUAUGAAAACAACCUACUAGCUCA | 0.001 ± 0.0069
GGAGACCUAUGAUAAGAACCUACUACCUGA | 0.000109 ± 0.024
GGAGACCUAUGUAUACGACCUACUACCUCA | 0.00235 ± 0.004
GGAGACCUAACUAUACAACAUACUACCUCA | 0.00659 ± 0.0046
GGAGUGGAUAGUAUACAAGCUACUACCUCA | 0.00224 ± 0.0021
GGAGACGAUACUUUACAACCUACUACCACA | 0.00268 ± 0.0031
GGAGACCUUAGUAUACAACCAACUACCUCA | 0.000442 ± 0.0055
GGAGACCUAUGAUAUGUACCUACAUGGAGA [g8:g13:cont:t1A] | < 0.0001

Sequence | pre-steady-state target cleavage rate
GGAGACCUAUGAAUACAACCUAAUACCUCA | 0.000653 ± 0.0059
GGAGACCUAUGAUAUGUUGCUACCUACCUCA | 0.000243 ± 0.017
GGAGACCUAUGAUAUCAACCAUGUACCUCA | 0.000102 ± 0.021
GGAGACCUAUGAUAUGUUGGUACUACCUCCA | 0.000192 ± 0.014
GGAGACCUAUGAAUACAACCAACUACCUCA | 0.000914 ± 0.0089
GGAGACCUAUGAUAACAACCUACAACCUCA | 0.000818 ± 0.0088
GGAGACCUAUGAAUACAUGGUACUACCUCA | 0.00141 ± 0.0075
GGAGACGUUACUAUACUACCUACUACCUCA | 0.00494 ± 0.0024
GGAGACCUAUGUAUACAACCUCCUACCUCA | 0.00207 ± 0.0047
GGAGACCUAUGAUAUCAUCCUACUACGUCA | 0.00132 ± 0.0064
GGAGACCUAUGAAUACAACCUACUAGCUCA | 0.00123 ± 0.0037
GGAGACCUAACUAUUCAAGCUACUACCUCA | 0.000909 ± 0.0054
GGAGACCUAUGAUAUCAACCUAUCUACCUCA | 0.000184 ± 0.014
GGAGACCUAACUUAUCAACCUACUACCUCA | 0.00155 ± 0.0068
GGAGACCUAUGAAUACAACCAUCUACCUCA | 0.000602 ± 0.0095
GGAGAGGAUUCUAUACUACCUACUACCUCA | 0.00299 ± 0.0038
GGAGACCUAUCUAUACAAGCUACUACCUCA | 0.00207 ± 0.0023
GGAGACCUAUGUGAUACAACCUACUACCUCA | 0.0129 ± 0.0064
GGAGACCUAACUAAACAACCUACUACCUGA | 0.00144 ± 0.0053
GGAGACCUAUGAUAUGAAGGUACUACCUCA | 0.000573 ± 0.0051

Quoted at random: 2 records from the list, in no set order.
Sequence | pre-steady-state target cleavage rate
GGAGACCUAUGAAUACAACCUAAUACCUCA | 0.000653 ± 0.0059
GGAGAGGAUUCUAUACUACCUACUACCUCA | 0.00299 ± 0.0038
